For at least one compound, name, drawing or mass did not settle the structure.
Assay: Color drift of paint dosed with copper-containing material and copper-coordinating additive (CIE a* before/after peroxide)
Assay type: physicochemical

Row | Structure (SMILES) | color shift to endpoint / color drift (FIG. 10, 1:3 molar ratio, 50 g/gallon, additive neutralized to pH 7) | color drift (FIG. 5, Control N paint, 1:1 and 1:3 molar ratios, 50 g/gallon, additive neutralized to pH 7) | effect on a* / color endpoint (summary of data) (control paint samples, summary)
1 | O=P(O)(Oc1ccccc1)Oc1ccccc1 [diphenyl phosphate] | accelerated color shift to endpoint, minimizing color drift |  | 
2 | NC(N)=S [thiourea] |  | reduced total color drift, but changed the endpoint color to a higher a* value | increased the a* beyond the original paint composition
